Results reported in patent US20110014193A1 (JURIDICAL FDN THE CHEMO SERO THERAPEUTIC RES INST, published 2011).
No constants are given. Whether binding was seen depends on the method and setting. A result given as binding can be weak or reduced; the word gives no strength.

The chains behind the UniProt entries cited, without tags or fusion partners. Where a name states a change or a piece, a line headed by the entry shows the natural chain unless it says otherwise.
UniProt Q13797: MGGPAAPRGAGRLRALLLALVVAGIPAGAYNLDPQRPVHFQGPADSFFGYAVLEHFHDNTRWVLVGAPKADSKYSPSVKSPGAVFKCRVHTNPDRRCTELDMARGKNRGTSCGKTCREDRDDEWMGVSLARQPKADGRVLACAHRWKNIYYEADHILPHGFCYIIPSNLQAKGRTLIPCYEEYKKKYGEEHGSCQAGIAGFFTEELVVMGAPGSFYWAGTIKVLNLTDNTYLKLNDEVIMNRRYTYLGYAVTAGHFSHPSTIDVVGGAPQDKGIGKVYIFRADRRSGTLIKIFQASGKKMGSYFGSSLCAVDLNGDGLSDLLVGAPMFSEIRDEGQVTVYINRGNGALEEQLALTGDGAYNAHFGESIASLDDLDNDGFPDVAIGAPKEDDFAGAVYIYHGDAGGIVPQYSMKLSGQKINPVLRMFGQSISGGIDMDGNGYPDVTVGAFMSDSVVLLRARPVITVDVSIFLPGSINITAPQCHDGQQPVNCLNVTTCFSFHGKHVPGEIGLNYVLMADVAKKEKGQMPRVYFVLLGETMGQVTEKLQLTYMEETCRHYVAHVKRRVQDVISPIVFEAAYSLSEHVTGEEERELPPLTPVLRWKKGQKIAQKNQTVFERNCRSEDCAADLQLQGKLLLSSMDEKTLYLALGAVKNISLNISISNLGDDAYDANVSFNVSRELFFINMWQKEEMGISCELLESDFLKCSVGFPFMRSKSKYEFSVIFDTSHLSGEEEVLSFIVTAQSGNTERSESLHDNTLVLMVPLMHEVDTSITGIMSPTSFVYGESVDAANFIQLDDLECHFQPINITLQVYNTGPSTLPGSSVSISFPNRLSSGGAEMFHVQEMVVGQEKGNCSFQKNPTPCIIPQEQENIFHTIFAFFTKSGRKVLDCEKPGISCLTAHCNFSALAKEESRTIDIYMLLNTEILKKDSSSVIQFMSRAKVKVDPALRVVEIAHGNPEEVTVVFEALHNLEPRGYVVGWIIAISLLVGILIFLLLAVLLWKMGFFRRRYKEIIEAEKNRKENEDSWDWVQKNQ

Legend:
[1] = biological target: T1, human α9 integrin molecule (human, UniProt Q13797 30-1035; P05556 21-798); assay: Cell ELISA on SW480/hα9 cells; antibody treated with 0.4% hydrogen peroxide (25° C., 4 hr) against untreated antibody
[2] = biological target: T1, human α9 integrin molecule; assay: Cell ELISA on immobilized SW480 cells expressing human α9 integrin
[3] = biological target: T1, human α9 integrin molecule; assay: Cell ELISA on SW480/hα9 cells, antibody in expression supernatant
[4] = biological target: T1, human α9 integrin molecule; assay: Cell ELISA on SW480/hα9 cells, comparison antibody
[5] = biological target: T1, human α9 integrin molecule; assay: CELL ELISA on SW480/hα9 cells, as in Example 4
[6] = biological target: T1, human α9 integrin molecule; assay: Cell ELISA on SW480/hα9 cells, E. coli Fab expression supernatant
[7] = biological target: T1, human α9 integrin molecule; assay: Cell ELISA on SW480/hα9 cells, comparison control Fab

B1: RY9A2v501 antibody (antibody, V domains shown)
VH: QVQLVQSGAEVKKPGSSVKMSCKASGYTLTTYWMHWVKQRPGQGLEWIGYINPSSGYTEYNQKFKDRVTITADKSTSTAYMELSSLRSEDTAVYYCAIYGDYGDFYFDYWGQGTTVTVSS
VL: DIQMTQSPSSLSASVGDRVTITCKASQSVNTDVAWYQQKPGKAPKLLIYFASNHYTGVPSRFSGSGSGTDFTFTISSLQPEDIATYYCRQDYSSPFTFGGGTKVEIKR
binding [1]: binds
binding [2]: binds

B2: RY9A2v5(M34I)01 antibody (antibody, V domains shown)
VH: QVQLVQSGAEVKKPGSSVKMSCKASGYTLTTYWIHWVKQRPGQGLEWIGYINPSSGYTEYNQKFKDRVTITADKSTSTAYMELSSLRSEDTAVYYCAIYGDYGDFYFDYWGQGTTVTVSS
VL: DIQMTQSPSSLSASVGDRVTITCKASQSVNTDVAWYQQKPGKAPKLLIYFASNHYTGVPSRFSGSGSGTDFTFTISSLQPEDIATYYCRQDYSSPFTFGGGTKVEIKR
binding [1]: binds
binding [3]: binds

B3: RY9A2v5(M34L)01 antibody (antibody, V domains shown)
VH: QVQLVQSGAEVKKPGSSVKMSCKASGYTLTTYWLHWVKQRPGQGLEWIGYINPSSGYTEYNQKFKDRVTITADKSTSTAYMELSSLRSEDTAVYYCAIYGDYGDFYFDYWGQGTTVTVSS
VL: DIQMTQSPSSLSASVGDRVTITCKASQSVNTDVAWYQQKPGKAPKLLIYFASNHYTGVPSRFSGSGSGTDFTFTISSLQPEDIATYYCRQDYSSPFTFGGGTKVEIKR
binding [1]: binds
binding [3]: binds

B4: RY9A2v801 antibody (antibody, V domains shown)
VH: QVQLVQSGAEVKKPGSSVKVSCKASGYTLTTYWMHWVRQAPGQGLEWMGYINPSSGYTEYNQKFKDRVTITADKSTSTAYMELSSLRSEDTAVYYCAIYGDYGDFYFDYWGQGTTVTVSS
VL: DIQMTQSPSSLSASVGDRVTITCKASQSVNTDVAWYQQKPGKAPKLLIYFASNHYTGVPSRFSGSGSGTDFTFTISSLQPEDIATYYCRQDYSSPFTFGGGTKVEIKR
binding [2]: binds

B5: RY9A2v11011 antibody (antibody, V domains shown)
VH: QVQLVQSGAEVKKPGSSVKMSCKASGYTLTTYWMHWVKQRPGQGLEWIGYINPSSGYTEYNQKFQGRVTITADKSTSTAYMELSSLRSEDTAVYYCAIYGDYGDFYFDYWGQGTTVTVSS
VL: DIQMTQSPSSLSASVGDRVTITCQASQSVNTDVAWYQQKPGKAPKLLIYFASNHYTGVPSRFSGSGSGTDFTFTISSLQPEDIATYYCRQDYSSPFTFGGGTKVEIKR
binding [3]: binds

B6: RY9A2v11012 antibody (antibody, V domains shown)
VH: QVQLVQSGAEVKKPGSSVKMSCKASGYTLTTYWMHWVKQRPGQGLEWIGYINPSSGYTEYNQKFQGRVTITADKSTSTAYMELSSLRSEDTAVYYCAIYGDYGDFYFDYWGQGTTVTVSS
VL: DIQMTQSPSSLSASVGDRVTITCRASQSVNTDVAWYQQKPGKAPKLLIYFASNHYTGVPSRFSGSGSGTDFTFTISSLQPEDIATYYCRQDYSSPFTFGGGTKVEIKR
binding [3]: binds

B7: chimeric Y9A2 antibody (antibody, V domains shown)
VH: QVQLQQSGAELANPGASVKMSCKASGYTLTTYWMHWVKQRPGQGLEWIGYINPSSGYTEYNQKFKDKATLTADKSSSTAYMQLTSLTSEDSAVYYCAIYGDYGDFYFDYWGQGTTLTVSS
VL: SIVMTQTPKFLLVSAGDRVTMTCKASQSVNTDVAWFQQKPGQSPKLLIYFASNHYTGVPDRFTGSGYGTDFTFTISTVQAEDLAIYFCRQDYSSPFTFGGGTKLEIKR
binding [1]: binds
binding [4]: binds
binding [2]: binds
binding [5]: binds

B8: Y9A2 antibody Fab wherein the 104th and 105th amino acids were substituted by alanine and leucine (Fab, V domains shown)
VH: QVQLQQSGAELANPGASVKMSCKASGYTLTTYWMHWVKQRPGQGLEWIGYINPSSGYTEYNQKFKDKATLTADKSSSTAYMQLTSLTSEDSAVYYCAIYGDYGALYFDYWGQGTTLTVSS
VL: SIVMTQTPKFLLVSAGDRVTMTCKASQSVNTDVAWFQQKPGQSPKLLIYFASNHYTGVPDRFTGSGYGTDFTFTISTVQAEDLAIYFCRQDYSSPFTFGGGTKLEIKR
binding [6]: binds

B9: Y9A2 antibody Fab wherein the 104th and 105th amino acids were substituted by alanine and tryptophan (Fab, V domains shown)
VH: QVQLQQSGAELANPGASVKMSCKASGYTLTTYWMHWVKQRPGQGLEWIGYINPSSGYTEYNQKFKDKATLTADKSSSTAYMQLTSLTSEDSAVYYCAIYGDYGAWYFDYWGQGTTLTVSS
VL: SIVMTQTPKFLLVSAGDRVTMTCKASQSVNTDVAWFQQKPGQSPKLLIYFASNHYTGVPDRFTGSGYGTDFTFTISTVQAEDLAIYFCRQDYSSPFTFGGGTKLEIKR
binding [6]: binds

B10: Y9A2 antibody Fab wherein the 104th and 105th amino acids were substituted by tryptophan and glutamic acid (Fab, V domains shown)
VH: QVQLQQSGAELANPGASVKMSCKASGYTLTTYWMHWVKQRPGQGLEWIGYINPSSGYTEYNQKFKDKATLTADKSSSTAYMQLTSLTSEDSAVYYCAIYGDYGWEYFDYWGQGTTLTVSS
VL: SIVMTQTPKFLLVSAGDRVTMTCKASQSVNTDVAWFQQKPGQSPKLLIYFASNHYTGVPDRFTGSGYGTDFTFTISTVQAEDLAIYFCRQDYSSPFTFGGGTKLEIKR
binding [6]: binds

B11: Y9A2 antibody Fab wherein the 104th and 105th amino acids were substituted by serine and tryptophan (Fab, V domains shown)
VH: QVQLQQSGAELANPGASVKMSCKASGYTLTTYWMHWVKQRPGQGLEWIGYINPSSGYTEYNQKFKDKATLTADKSSSTAYMQLTSLTSEDSAVYYCAIYGDYGSWYFDYWGQGTTLTVSS
VL: SIVMTQTPKFLLVSAGDRVTMTCKASQSVNTDVAWFQQKPGQSPKLLIYFASNHYTGVPDRFTGSGYGTDFTFTISTVQAEDLAIYFCRQDYSSPFTFGGGTKLEIKR
binding [6]: binds

B12: Y9A2 antibody Fab (Fab, V domains shown)
VH: QVQLQQSGAELANPGASVKMSCKASGYTLTTYWMHWVKQRPGQGLEWIGYINPSSGYTEYNQKFKDKATLTADKSSSTAYMQLTSLTSEDSAVYYCAIYGDYGDFYFDYWGQGTTLTVSS
VL: SIVMTQTPKFLLVSAGDRVTMTCKASQSVNTDVAWFQQKPGQSPKLLIYFASNHYTGVPDRFTGSGYGTDFTFTISTVQAEDLAIYFCRQDYSSPFTFGGGTKLEIKR
binding [7]: binds

B13: RY9A2v11(M34L)012 antibody (antibody, human IgG1, kappa, V domains shown)
VH: QVQLVQSGAEVKKPGSSVKMSCKASGYTLTTYWLHWVKQRPGQGLEWIGYINPSSGYTEYNQKFQGRVTITADKSTSTAYMELSSLRSEDTAVYYCAIYGDYGDFYFDYWGQGTTVTVSS
VL: DIQMTQSPSSLSASVGDRVTITCRASQSVNTDVAWYQQKPGKAPKLLIYFASNHYTGVPSRFSGSGSGTDFTFTISSLQPEDIATYYCRQDYSSPFTFGGGTKVEIKR
binding [5]: binds

B14: RY9A2v5(IAW)01 antibody (antibody, human IgG1, kappa, V domains shown)
VH: QVQLVQSGAEVKKPGSSVKMSCKASGYTLTTYWIHWVKQRPGQGLEWIGYINPSSGYTEYNQKFKDRVTITADKSTSTAYMELSSLRSEDTAVYYCAIYGDYGAWYFDYWGQGTTVTVSS
VL: DIQMTQSPSSLSASVGDRVTITCKASQSVNTDVAWYQQKPGKAPKLLIYFASNHYTGVPSRFSGSGSGTDFTFTISSLQPEDIATYYCRQDYSSPFTFGGGTKVEIKR
binding [5]: binds

B15: RY9A2v12(M34L)012 antibody (antibody, human IgG1, kappa, V domains shown)
VH: QVQLVQSGAEVKKPGSSVKVSCKASGYTLTTYWLHWVRQAPGQGLEWMGYINPSSGYTEYNQKFQGRVTITADKSTSTAYMELSSLRSEDTAVYYCAIYGDYGDFYFDYWGQGTTVTVSS
VL: DIQMTQSPSSLSASVGDRVTITCRASQSVNTDVAWYQQKPGKAPKLLIYFASNHYTGVPSRFSGSGSGTDFTFTISSLQPEDIATYYCRQDYSSPFTFGGGTKVEIKR
binding [5]: binds
